Some of the results follow. Further columns of the screen follow, without active or inactive calls. The list favours compounds with an active or inconclusive main result. Words in brackets tell the shape of the fitted curve; partial curves, single points and poor fits give uncertain potencies.

The nature of the experiment: IkB Signaling. As to conditions: ABC-DLBCL IkBa-CBG/CBR dual luciferase ratio (green luciferase fused to IkBa over red control in OCI-Ly3 lymphoma cells), 4 h. Summed up:
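Curves were fitted separately to fusion (green), unfused (red) and ratio luminescence, then classed by r2, magnitude and activity. Cells: OCI-Ly3, 4 h compound plus doxycycline at 37C; 10 uM MG-132 defined full response.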

The mark [1] stands for this setting: measured here: control luc red channel unless noted.

The term AC50 denotes the concentration at which the activity in the assay is half-maximal. For the compound `O=C1[C@@H]2CSC(c3ccc(F)cc3)N2C(=O)N1c1ccc(Cl)cc1` (some centres undefined), under setting [1], the AC50 is 31.6 µM [falling, single point]. For the compound `Cc1cccc(OCc2nnc(SCc3cc(=O)n4cc(Br)ccc4n3)o2)c1`, under setting [1], the AC50 was 25.1 µM [falling, partial curve, poor fit]. The same measure, in the same setting: the same measure for `O=C(Cn1c(=O)n2nc(-c3ccccc3)nc2c2ccccc21)Nc1ccccc1C(F)(F)F`: 39.8 µM [falling, single point]; for `COc1ccc(-c2noc(C3CCCN(C(=O)CCc4ccccc4)C3)n2)cc1` (centres undefined): 12.6 µM [falling, partial curve]; for `COc1cc(Cl)c(C)cc1NC(=O)CCc1nc2cccnc2n1-c1ccccc1`: 39.8 µM [falling, single point].

Consider `CC1=C(C(=O)Nc2ccccc2)C(c2ccccc2)n2nc(-c3ccco3)nc2N1` (centres undefined), for which the half-maximal activity concentration (AC50) under setting [1] was 1.26 µM [falling, full curve, poor fit]. On to `COc1ccc(NC(=O)Cn2c(SCc3cccc(Cl)c3)nc3ccncc32)c(OC)c1OC`, for which, under setting [1], the AC50 was 12.6 µM [falling, partial curve]. On the same count and under the same terms, the same measure for `COc1ccc(N2CCN(C(=O)C(CCSC)N=C3NS(=O)(=O)c4ccccc43)CC2)cc1` (centres undefined): 20 µM [falling, partial curve]; for `CCOc1ccccc1NC(=O)C(C)Sc1cc(-c2ccccc2)nc(C)n1` (centres undefined): 20 µM [falling, partial curve].

Turning to `Cc1ccc(NCc2cccn2-c2nnc(N3CCCCCC3)s2)cc1`, the AC50 under setting [1] is 15.8 µM [falling, partial curve]. Same read-out and setting: the same measure for `CCCCn1c(=O)n(-c2ccc(Br)cc2F)c(=O)c2c3c(sc21)CN(C(C)=O)CC3`: 20 µM [falling, single point]; for `Cc1csc2nc(COC(=O)c3ccc(NC(=O)COc4ccccc4F)cc3)cc(=O)n12`: 10 µM [falling, partial curve]. Still for that read-out and setting: the same measure for `CCOC(=O)c1c(-c2ccccc2)[nH]c2ccc(O)cc12`: 15.8 µM [falling, partial curve]; for `COc1ccccc1CNC(=O)C(=O)NCC(c1cccs1)S(=O)(=O)c1ccc(F)cc1` (centres undefined): 39.8 µM [falling, partial curve]; for `Cc1cc(C)cc(C(=O)N(C)[C@H](Cc2ccc(-c3ccccc3)cc2)C(=O)N[C@@H](Cc2c[nH]c3ccccc23)C(=O)O)c1`: 20 µM [falling, partial curve].

Take `O=C(CSc1nnc2ccccn12)c1ccc(OC(F)F)cc1OC(F)F`: the AC50 under setting [1] is 25.1 µM [falling, single point]. Same read-out and setting: the same measure for `Oc1c(C(c2ccccc2)N2CCN(Cc3ccccc3)CC2)sc2nc(-c3ccco3)nn12` (centres undefined): 5.01 µM [rising, single point]; for `O=C(CCn1c(=O)oc2ccccc21)Nc1ccccc1`: 2 µM [falling, full curve, poor fit]; for `Cc1ccc(NC(=O)Cn2nnnc2-c2ccccc2N)cc1`: 20 µM [falling, partial curve, poor fit]. Same read-out and setting: the same measure for `O=C(C1CCCN(S(=O)(=O)c2cccs2)C1)N1CCN(c2cccc(Cl)c2)CC1` (centres undefined): 39.8 µM [falling, single point].

Take `Cn1c(=O)c2nc(SCC(=O)Nc3cc(Cl)ccc3Cl)n(C)c2n(C)c1=O`: the AC50 under setting [1] is 0.0126 µM [falling, full curve, poor fit]. The same measure, in the same setting: the same measure for `NC(=O)CSc1nc2c(oc3ccccc32)c(=O)n1-c1ccccc1F`: 0.02 µM [rising, full curve, poor fit].

For the compound `COc1cccc(CNC(=O)CSc2ccc(-c3sc(-c4ccccc4)nc3C)nn2)c1`, the AC50 under setting [1] is 25.1 µM [falling, single point]. Same read-out and setting: in the case of `CCOc1ccc(OCC)c(NC(=O)C2CCCN(S(=O)(=O)c3ccc4c(c3)oc(=O)n4C)C2)c1` (centres undefined) it was 12.6 µM [falling, partial curve]; in that of `CCOc1nc2ccccc2nc1NS(=O)(=O)c1ccccc1`, 3.98 µM [falling, full curve]; in that of `CC(=O)Nc1ccc(Nc2ncnc3c2c(-c2ccccc2)cn3-c2ccccc2)cc1`, 12.6 µM [falling, partial curve]. Turning to `Cc1cc(C)cc(-n2c(SCC(=O)N3CCc4ccccc43)nc3c([nH]c4ccccc43)c2=O)c1`, under setting [1], the AC50 was 39.8 µM [rising, single point]. On the same count and under the same terms, the same measure for `Cc1ccc(OC(C)c2nnc(N)s2)cc1Cl` (centres undefined): 12.6 µM [falling, partial curve]; for `CCOc1ccc2nc(N3CCN(C(=O)CS(=O)(=O)c4ccc(F)cc4)CC3)sc2c1`: 31.6 µM [falling, partial curve].

In the case of `Cc1ccc(Cl)c2sc(N3CCN(C(=O)C4CC4)CC3)nc12`, the AC50 under setting [1] is 39.8 µM [falling, single point]. Regarding `CC1=C/C(=C\c2ccc3c(c2)OCO3)C(=O)S1`, the half-maximal activity concentration (AC50) reads like this: (measured here: IkB-luc green channel) 31.6 µM [rising, single point]; (measured here: control luc red channel) 20 µM [falling, partial curve]. In the case of `Cc1ccccc1Cn1cc(S(=O)(=O)c2ccc(Cl)cc2)c(=O)c2cc3c(cc21)OCO3`, under setting [1], the AC50 was 7.94 µM [falling, partial curve]. With `COc1cccc(N2CCN(C(=O)C3CCCN(S(=O)(=O)c4ccc(Br)s4)C3)CC2)c1` (centres undefined), under setting [1], the AC50 was 15.8 µM [falling, partial curve]. Still for that read-out and setting: in the case of `Cc1c(NC(=O)c2nc3ccccc3n(C)c2=O)cccc1[N+](=O)[O-]` it was 3.16 µM [rising, partial curve]. On the same count and under the same terms, in the case of `CC(=O)N1CCN(c2ccc(Oc3ncnc4sccc34)cc2)CC1` it was 20 µM [falling, partial curve, poor fit]; in that of `Cc1ccc(NC(=O)c2ccc(NC(=O)N3CCSc4ncccc43)cc2)cc1Cl`, 7.94 µM [falling, full curve]; in that of `C=CCn1c(SCC(=O)c2cc(C)n(Cc3cccs3)c2C)nnc1-c1ccncc1`, 25.1 µM [falling, partial curve]. The same measure, in the same setting: in the case of `CCCN(C(=O)Cn1ncc2c(=O)oc3ccccc3c21)c1cccc(C)c1` it was 12.6 µM [falling, single point]. With `CCCCOC(=O)c1ccc(NS(=O)(=O)c2c(C)nc3scc(C)n3c2=O)cc1`, under setting [1], the AC50 was 20 µM [falling, partial curve]. Same read-out and setting: the same measure for `Cc1ccc(CNC(=O)Cn2ncc3c(C)n(Cc4ccc(Cl)cc4)c(C)c3c2=O)cc1`: 15.8 µM [falling, single point].

As for `COc1ccccc1Nc1cc(C)nc2nc(-c3ccccc3)nn12`, under setting [1], the AC50 was 25.1 µM [falling, single point]. For the compound `Cc1ccc(NC(=O)c2c(N3CCCC3=O)c3cc(C)ccc3n2C)c(C)c1`, under setting [1], the AC50 was 25.1 µM [falling, single point].

Take `O=C(CCSCCc1ccccn1)Nc1nccs1`: the AC50 under setting [1] was 10 µM [falling, partial curve]. Same read-out and setting: in the case of `CCOc1ccc(N(CC)C(=O)c2cc3c(s2)-c2ccccc2OC3)cc1` it was 39.8 µM [falling, single point]; in that of `COc1cccc(N2CCN(C(=O)c3nn(C)c4c3CSc3ccc(C)cc3-4)CC2)c1`, 20 µM [falling, single point]; in that of `CCC(=O)N1CCc2cc(CNC(=O)c3ccc(F)cc3)ccc21`, 7.94 µM [rising, partial curve]. Consider `Cc1ccc(-c2nc3sccn3c2Nc2ccc(C)c(C)c2)cc1`, for which the AC50 under setting [1] was 39.8 µM [falling, single point].

For `CCC(C(=O)Nc1cc(F)ccc1F)n1nc(C)c2c(C)n(-c3ccc(C)cc3)nc2c1=O` (centres undefined), under setting [1], the AC50 was 7.94 µM [falling, full curve]. Still for that read-out and setting: the same measure for `CCc1c(O)nc(SCC(=O)Nc2ccc(C)cc2)n(C2CCCCC2)c1=O`: 10 µM [falling, partial curve].

Consider `CCc1ccccc1NC(=O)c1noc2c1CC(C(C)(C)C)CC2` (centres undefined), for which the AC50 under setting [1] was 39.8 µM [falling, single point]. On the same count and under the same terms, in the case of `Cc1cccc(NC(=O)C(=O)NCCc2csc(-c3ccc(F)cc3)n2)c1C` it was 3.98 µM [falling, full curve]; in that of `Cc1cc(N2CCCCC2)nc2ccc(NC(=O)CCC(=O)N3CCN(c4ccccc4)CC3)cc12`, 25.1 µM [falling, partial curve]. Regarding `O=C(CSCc1ccc(F)cc1)N1CCc2c([nH]c3ccccc23)C1c1ccc(Cl)cc1` (centres undefined), under setting [1], the AC50 was 25.1 µM [falling, single point].

As for `COc1ccc(NC(=O)CN2C(=O)c3cccnc3Sc3ccccc32)cc1OC`, the AC50 under setting [1] is 15.8 µM [falling, partial curve, poor fit]. Still for that read-out and setting: the same measure for `Cc1cccc(N2CCN(C(=O)c3ccc(Nc4nc5ccccc5n5nnnc45)cc3)CC2)c1C`: 2 µM [falling, full curve]; for `CC1=C(C(=O)Nc2cc(Cl)ccc2C)C(c2cccs2)n2ncnc2N1` (centres undefined): 1.26 µM [falling, full curve].

Take `CC1CCN(C(=S)c2ccccc2O)CC1`: the AC50 under setting [1] is 31.6 µM [falling, single point]. Same read-out and setting: the same measure for `CCn1c(COc2ccccc2C)nnc1SCC(=O)CC(=O)Nc1ccccc1OC`: 15.8 µM [falling, partial curve]. Same read-out and setting: in the case of `Cn1c(=O)cc(SCC(=O)N2CCN(c3ccccc3F)CC2)c2ccccc21` it was 25.1 µM [falling, single point].

Take `CCOc1ccc(NC(=O)CC2C(=O)N(c3cccc(C)c3)C(=O)N2Cc2cccs2)cc1` (centres undefined): the AC50 under setting [1] was 31.6 µM [falling, single point]. On the same count and under the same terms, the same measure for `CCOc1ccc(CN(CCc2ccc3c(c2)OCO3)Cc2cc(OC)c(OC)cc2OC)cc1`: 12.6 µM [falling, partial curve]; for `COc1cc(NC(=O)CCc2c(C)nn(-c3ccc(N4CCCCC4)nn3)c2C)cc(OC)c1OC`: 15.8 µM [falling, partial curve]. Take `COc1ccc(NCC(=O)Nc2ccc(Cl)cc2C)c(OC)c1`: the AC50 under setting [1] is 15.8 µM [falling, partial curve].

(Values after PubChem BioAssay AID445 (National Center for Advancing Translational Sciences (NCATS), 2006).)
